Patent US20230082611A1, “COMPOSITIONS AND METHODS FOR THE TREATMENT OF RESPIRATORY SYNCYTIAL VIRUS” (Cidara Therapeutics, Inc., priority 2019, published 2023)
Some results were stated once for a whole list of compounds, not compound by compound.

System: HEp-2 cells
Test: Inherent cytotoxicity run in parallel with the CPE assay (CellTiter-Glo)
Type: cell-based
Conditions: CC50 vs CPE EC50
Procedure: In parallel with the CPE assay, the inherent cytotoxicity of several test articles was also determined. Briefly, ten four-fold serial dilutions of each TA starting at 10 μM were prepared in triplicate for inoculation with HEp-2 cells in 96-well culture plates. The cell viability was determined four days post treatment using CellTiter-Glo kit.

## C#CCOCCOCCOCCOCCN[C@H]1CCN(c2nc3cc(C4CCCCN4C(=O)c4cc(Cl)ccc4NS(C)(=O)=O)nn3cc2C)C1 (some centres unmarked) [Int-7]
  cytotoxicity (CC50) relative to EC50: greater than 180 fold

## C#CCOCCOCCOCCOCCC(=O)N[C@H]1CCN(c2nc3cc([C@@H]4CCCCN4C(=O)c4cc(Cl)ccc4NS(C)(=O)=O)nn3cc2C)C1 [Int-9]
  cytotoxicity (CC50) relative to EC50: greater than 180 fold
